Patent US20040077879A1 (priority 2002, published 2004)
Some peptides are written in HELM: one residue between dots, names in brackets for other building blocks, links after the first $.

Assay: general procedure: peptide synthesis; polystyrene resin (Novabiochem); HMPA, HMBA, RINK, silylalkyl or 4-sulfamylbenzoyl linkers
Conditions: whole synthesis

With “PEPTIDE1{Y.[pro4(2S4S)].[pro4(2S4S)].[pro4(2S4S)].[am]}$PEPTIDE1,PEPTIDE1,1:R1-2:R3|PEPTIDE1,PEPTIDE1,2:R4-3:R3|PEPTIDE1,PEPTIDE1,3:R4-4:R3$$$V2.0” the crude mass was 5 mg and the crude yield (based on resin loading, scale of the general procedure 20 umol) was “˜15% yield”.
